{"source": "ChEMBL document CHEMBL1121639", "about": "“Analgesic narcotic antagonists. 5. 7,7-Dimethyldihydrocodeinones and 7,7-dimethyldihydromorphinones” (1981)", "tested_on": "Mus musculus", "test": "Analgesic agonist activity in acetic acid induced mouse writhing assay, subcutaneous administration", "type": "functional", "details": "sc", "method_in_brief": "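Test agents given as solutions: salts in distilled water; free bases dissolved by adding 1 N HCl, then further diluted.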", "data": [{"compound": "CN1CC[C@]23c4c5ccc(O)c4O[C@H]2[C@@H](O)C=C[C@H]3[C@H]1C5", "note": "[MORPHINE]", "values": [{"measurement": "ED50", "value": 2.1, "unit": "µmol/kg"}]}]}
